Source: doi:10.1101/2022.03.17.484791
Residue numbers refer to the chain shown, from its start. These are yes or no findings as the source states them, for the method shown. For some assays here: In cells and extracts the contact can be indirect. Some entries that bind do so weakly or less than the wild type. Tags and fused reporters may be left off the sequences shown.

The chains behind the UniProt entries cited, without tags or fusion partners.
UniProt Q92973: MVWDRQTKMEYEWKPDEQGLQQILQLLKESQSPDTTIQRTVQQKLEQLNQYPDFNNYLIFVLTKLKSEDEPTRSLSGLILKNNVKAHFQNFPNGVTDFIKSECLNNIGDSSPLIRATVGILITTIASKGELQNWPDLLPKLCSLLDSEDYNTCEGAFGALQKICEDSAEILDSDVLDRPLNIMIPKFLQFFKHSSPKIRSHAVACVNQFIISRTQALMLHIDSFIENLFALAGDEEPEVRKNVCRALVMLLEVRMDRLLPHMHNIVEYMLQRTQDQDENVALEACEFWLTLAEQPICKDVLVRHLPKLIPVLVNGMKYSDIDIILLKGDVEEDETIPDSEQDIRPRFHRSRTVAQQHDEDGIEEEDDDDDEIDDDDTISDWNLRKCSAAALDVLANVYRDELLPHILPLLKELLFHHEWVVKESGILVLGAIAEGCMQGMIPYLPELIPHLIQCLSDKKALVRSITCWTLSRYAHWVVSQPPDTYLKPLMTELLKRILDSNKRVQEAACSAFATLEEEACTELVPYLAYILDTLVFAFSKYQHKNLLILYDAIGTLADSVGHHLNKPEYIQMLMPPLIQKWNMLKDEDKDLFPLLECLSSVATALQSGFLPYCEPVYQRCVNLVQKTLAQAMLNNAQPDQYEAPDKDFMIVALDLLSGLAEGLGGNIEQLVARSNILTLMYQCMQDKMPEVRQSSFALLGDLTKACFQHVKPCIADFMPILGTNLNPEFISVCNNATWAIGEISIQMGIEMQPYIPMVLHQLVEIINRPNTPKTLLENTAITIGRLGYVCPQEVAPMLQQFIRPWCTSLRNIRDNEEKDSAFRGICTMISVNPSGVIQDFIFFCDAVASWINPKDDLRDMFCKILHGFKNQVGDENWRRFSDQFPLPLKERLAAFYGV

Assays:
[1] = biological target: T1, GST-hnRNPH2 PY-NLS R206Q (aa 169-225) (human) (UniProt P55795); test: pull-down
T1 sequence: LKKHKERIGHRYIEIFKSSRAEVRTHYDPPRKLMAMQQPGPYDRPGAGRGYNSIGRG

[2] = biological target: T2, GST-hnRNPH2 PY-NLS WT (aa 169-225) (human) (UniProt P55795); test: pull-down
T2 sequence: T1 sequence with Q38R

[3] = biological target: T3, GST-hnRNPH2 PY-NLS P209L (aa 169-225) (human) (UniProt P55795); test: pull-down
T3 sequence: T1 sequence with Q38R, P41L

[4] = biological target: T4, GST-hnRNPH2 PY-NLS R206W (aa 169-225) (human) (UniProt P55795); test: pull-down
T4 sequence: T1 sequence with Q38W

[5] = biological target: T5, FLAG-hnRNPH2 R206G, full-length (human) (UniProt P55795); test: co-IP
T5 sequence: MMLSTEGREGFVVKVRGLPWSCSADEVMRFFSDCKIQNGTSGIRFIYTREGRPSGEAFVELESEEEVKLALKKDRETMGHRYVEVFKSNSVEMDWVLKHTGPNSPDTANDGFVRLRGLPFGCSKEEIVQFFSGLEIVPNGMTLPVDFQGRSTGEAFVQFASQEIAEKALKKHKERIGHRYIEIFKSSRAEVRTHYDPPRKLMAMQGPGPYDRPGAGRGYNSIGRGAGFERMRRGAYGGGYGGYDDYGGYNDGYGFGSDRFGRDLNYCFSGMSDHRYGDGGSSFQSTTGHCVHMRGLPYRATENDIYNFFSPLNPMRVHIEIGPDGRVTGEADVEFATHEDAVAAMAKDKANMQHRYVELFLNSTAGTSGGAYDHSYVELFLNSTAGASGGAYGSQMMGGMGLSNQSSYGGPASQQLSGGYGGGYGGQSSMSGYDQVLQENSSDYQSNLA

[6] = biological target: T6, FLAG-hnRNPH2 R206W, full-length (human) (UniProt P55795); test: co-IP
T6 sequence: T5 sequence with G206W

[7] = biological target: T7, FLAG-hnRNPH2 Y210C, full-length (human) (UniProt P55795); test: co-IP
T7 sequence: T5 sequence with G206R, Y210C

[8] = biological target: T8, FLAG-hnRNPH2 R206Q, full-length (human) (UniProt P55795); test: co-IP
T8 sequence: T5 sequence with G206Q

[9] = biological target: T9, FLAG-hnRNPH2 P209L, full-length (human) (UniProt P55795); test: co-IP
T9 sequence: T5 sequence with G206R, P209L

[10] = biological target: T10, FLAG-hnRNPH2 WT, full-length (human) (UniProt P55795); test: co-IP
T10 sequence: T5 sequence with G206R

[11] = biological target: T11, FLAG-hnRNPH2 D340V, full-length (human) (UniProt P55795); test: co-IP
T11 sequence: T5 sequence with G206R, D340V

| binding [1] | binding [2] | binding [3] | binding [4] | binding [5] | binding [6] | binding [7] | binding [8] | binding [9] | binding [10] | binding [11] | Substance |
| --- | --- | --- | --- | --- | --- | --- | --- | --- | --- | --- | --- |
| binds | binds | binds | binds | – | – | – | – | – | – | – | Kapβ2 (karyopherin β2), protein added at 8 μM in the GST pulldown (from UniProt Q92973 1-898) (receptor) |
| – | – | – | – | binds | binds | binds | binds | binds | binds | binds | Kapβ2, endogenous in HEK293T cells (from UniProt Q92973 1-898) (receptor) |
